No constants are given. Whether binding was seen depends on the method and setting. Binding seen in cells or lysates may run through a third protein. Some entries that bind do so weakly or less than the wild type. Sequences can lack the tags named with a protein.

Chains of the proteins cited; added tags and fusions are not shown.
UniProt P62140: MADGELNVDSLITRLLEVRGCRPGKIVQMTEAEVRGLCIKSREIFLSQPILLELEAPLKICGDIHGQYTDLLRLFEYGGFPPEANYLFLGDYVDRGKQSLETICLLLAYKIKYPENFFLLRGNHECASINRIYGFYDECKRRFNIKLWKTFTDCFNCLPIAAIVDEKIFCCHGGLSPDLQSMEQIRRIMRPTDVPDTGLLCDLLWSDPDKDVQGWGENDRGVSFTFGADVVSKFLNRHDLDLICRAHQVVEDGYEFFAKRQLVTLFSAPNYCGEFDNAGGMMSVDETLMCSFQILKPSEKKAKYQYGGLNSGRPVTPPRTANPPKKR

This experiment has as its target protein phosphatase-1beta (PP1B) (human (endogenous in H2030)) (UniProt P62140). In words: co-IP; Co-IP of PP1B from lysates of H2030 (also H23, MGH1112-1) EV and LKB1 cells over-expressing HA-tagged NUAK1 WT or GKKK; blots for HA-NUAK1, PP1B and I-2.

B1: self-inhibitory protein I-2 (protein, UniProt P41236 1-205)
chain: MAASTASHRPIKGILKNKTSTTSSMVASAEQPRGNVDEELSKKSQKWDEMNILATYHPADKDYGLMKIDEPSTPYHSMMGDDEDACSDTEATEAMAPDILARKLAAAEGLEPKYRIQEQESSGEEDSDLSPEEREKKRQFEMKRKLHYNEGLNIKLARQLISKDLHDDDEDEEMLETADGESMNTEESNQGSTPSDQQQNKLRSS
Turning to B1, the binding result is “binds”.

B2: HA-tagged WT NUAK1 (enzyme, UniProt O60285 1-661)
chain: MEGAAAPVAGDRPDLGLGAPGSPREAVAGATAALEPRKPHGVKRHHHKHNLKHRYELQETLGKGTYGKVKRATERFSGRVVAIKSIRKDKIKDEQDMVHIRREIEIMSSLNHPHIISIYEVFENKDKIVIIMEYASKGELYDYISERRRLSERETRHFFRQIVSAVHYCHKNGVVHRDLKLENILLDDNCNIKIADFGLSNLYQKDKFLQTFCGSPLYASPEIVNGRPYRGPEVDSWALGVLLYTLVYGTMPFDGFDHKNLIRQISSGEYREPTQPSDARGLIRWMLMVNPDRRATIEDIANHWWVNWGYKSSVCDCDALHDSESPLLARIIDWHHRSTGLQADTEAKMKGLAKPTTSEVMLERQRSLKKSKKENDFAQSGQDAVPESPSKLSSKRPKGILKKRSNSEHRSHSTGFIEGVVGPALPSTFKMEQDLCRTGVLLPSSPEAEVPGKLSPKQSATMPKKGILKKTQQRESGYYSSPERSESSELLDSNDVMGSSIPSPSPPDPARVTSHSLSCRRKGILKHSSKYSAGTMDPALVSPEMPTLESLSEPGVPAEGLSRSYSRPSSVISDDSVLSSDSFDLLDLQENRPARQRIRSCVSAENFLQIQDFEGLQNRPRPQYLKRYRNRLADSSFSLLTDMDDVTQVYKQALEICSKLN
As to B2, the binding entry is recorded as “binds”.

(Values after paper PMC12048556.)
